Data as given in patent publication US20250320282A1 (MABYLON, published 2025).
These are yes or no findings as the source states them, for the method shown. Some binding calls cover weakened binding; strength is not graded here. Sequences can lack the tags named with a protein. Values belong to the binder of their own block, whether it stands above or below them.

What was measured:
[1] = target: T1, Ara h 2 (Arachis hypogaea allergen 2) (Arachis hypogaea, UniProt Q6PSU2 22-172); experiment: ELISA, scFv-Fc
T1 construct: Peanut allergen; also called nAra h 2; natural Ara h 2
T1 sequence: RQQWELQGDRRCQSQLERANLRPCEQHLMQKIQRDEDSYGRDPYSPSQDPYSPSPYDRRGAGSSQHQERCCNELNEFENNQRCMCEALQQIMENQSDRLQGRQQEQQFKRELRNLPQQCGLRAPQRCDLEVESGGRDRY

[2] = target: T1, Ara h 2 (Arachis hypogaea allergen 2); experiment: ELISA on Ara h2, scFv-Fc
[3] = target: T1, Ara h 2 (Arachis hypogaea allergen 2); experiment: SPR, 15E3 Fab immobilised, nAra h 2 then Fabs injected in sequence
[4] = target: T1, Ara h 2 (Arachis hypogaea allergen 2); experiment: BLI, 15E3-human IgG1 on anti-human Fc sensor, nAra h 2 then chimeric IgGs in sequence
[5] = target: T1, Ara h 2 (Arachis hypogaea allergen 2); experiment: ELISA
[6] = target: T1, Ara h 2 (Arachis hypogaea allergen 2); experiment: ELISA, purified rabbit antibody
[7] = target: T1, Ara h 2 (Arachis hypogaea allergen 2); experiment: ELISA, antibody titration on coated nAra h 2
[8] = target: T1, Ara h 2 (Arachis hypogaea allergen 2); experiment: as shown in the appended examples

B6: 7G6 (antibody, V domains shown)
VH: QVQLVESGGGVVQPGRSLRLSCAASGIAFNDYTMHWVRRSPDKGLEWVAAISYGGTNKYYADSVKGRFTISRDSSKNTLFLQMDSLRVEDTAVYYCARDSGYRSLLHWGQGTLVTVSS
VL: EIVLTQSPLSLPVTPGEPASISCRSSQSLVHRNGYNYLDWYLQKPGQSPQLLIYMASKRASGVPDRFSGSGSGTEFTLKISRVEAEDVGIYYCMQALQTWTFGQGTKVEVN
notes: Fully human monoclonal antibody, wild-type variable regions; tested as IgG; also called MY006-7G6
binding [5]: binds

B7: 7G6 Fab (Fab, V domains shown)
VH: QVQLVESGGGVVQPGRSLRLSCAASGIAFNDYTMHWVRRSPDKGLEWVAAISYGGTNKYYADSVKGRFTISRDSSKNTLFLQMDSLRVEDTAVYYCARDSGYRSLLHWGQGTLVTVSS
VL: EIVLTQSPLSLPVTPGEPASISCRSSQSLVHRNGYNYLDWYLQKPGQSPQLLIYMASKRASGVPDRFSGSGSGTEFTLKISRVEAEDVGIYYCMQALQTWTFGQGTKVEVN
binding [3]: binds

B8: 7G6 human-mouse IgG chimera (antibody, V domains shown)
VH: QVQLVESGGGVVQPGRSLRLSCAASGIAFNDYTMHWVRRSPDKGLEWVAAISYGGTNKYYADSVKGRFTISRDSSKNTLFLQMDSLRVEDTAVYYCARDSGYRSLLHWGQGTLVTVSS
VL: EIVLTQSPLSLPVTPGEPASISCRSSQSLVHRNGYNYLDWYLQKPGQSPQLLIYMASKRASGVPDRFSGSGSGTEFTLKISRVEAEDVGIYYCMQALQTWTFGQGTKVEVN
binding [4]: binds

B9: 2F8 Fab (Fab, V domains shown)
VH: EVQLVESGGGLVKPGGSLRLSCAASGFIFSDYNMNWVRQAPGKGLEWVSSITRSSRTIYYADSVKGRFTISRDNAKNSLHLQMNSLRDADTAVYYCAREDFDVSTGPYYMDVWGNGTTVIVSS
VL: EIVLTQSPGTLSLSPGERATLSCRASQSVSNMFLVWYQQKPGQAPRLLMYGASTRATDIPDRFSGSGSGTDFTLTISRLEPEDFAVYYCQQNGNSPYTFGQGTKLEIK
binding [3]: binds

B10: 2F8 human-mouse IgG chimera (antibody, V domains shown)
VH: EVQLVESGGGLVKPGGSLRLSCAASGFIFSDYNMNWVRQAPGKGLEWVSSITRSSRTIYYADSVKGRFTISRDNAKNSLHLQMNSLRDADTAVYYCAREDFDVSTGPYYMDVWGNGTTVIVSS
VL: EIVLTQSPGTLSLSPGERATLSCRASQSVSNMFLVWYQQKPGQAPRLLMYGASTRATDIPDRFSGSGSGTDFTLTISRLEPEDFAVYYCQQNGNSPYTFGQGTKLEIK
binding [4]: binds

B11: 7G6_rb_IGHV1S47_J3+IGKV1S19_JK1-2 (antibody, V domains shown)
VH: QEQLVESGGGLVQPEGSLTLTCKASGFDFSDYTMHWVRQAPGKGPEWIAAISYGGTNKYYADSVKGRFTISRSTSLNTVTLQMTSLTAVDTATYFCARDSGYRSLLHWGQGTLVTVSS
VL: AAVLTQTPSPVSAAVGGTVTIKCRSSQSLVHRNGYNYLDWYQQKPGQPPKLLIYMASKRASGVPDRFSGSGSGTQFTLTISGVQCDDAATYYCMQALQTWTFGGGTKVVVK
binding [6]: binds

B12: 7G6_rb_IGHV1S47_J3+K66N_IGKV1S19_JK1-2 (antibody, V domains shown)
VH: QEQLVESGGGLVQPEGSLTLTCKASGFDFSDYTMHWVRQAPGKGPEWIAAISYGGTNKYYADSVKGRFTISRSTSLNTVTLQMTSLTAVDTATYFCARDSGYRSLLHWGQGTLVTVSS
VL: AAVLTQTPSPVSAAVGGTVTIKCRSSQSLVHRNGYNYLDWYQQKPGQPPKLLIYMASNRASGVPDRFSGSGSGTQFTLTISGVQCDDAATYYCMQALQTWTFGGGTKVVVK
notes: Fully rabbit antibody: 7G6 CDRs grafted onto rabbit variable frameworks
binding [6]: binds

B13: 7G6_rb_IGHV1S47_J3+IGKV1S19_JK1-3 (antibody, V domains shown)
VH: QEQLVESGGGLVQPEGSLTLTCKASGFDFSDYTMHWVRQAPGKGPEWIAAISYGGTNKYYADSVKGRFTISRSTSLNTVTLQMTSLTAVDTATYFCARDSGYRSLLHWGQGTLVTVSS
VL: AAVLTQTPSPVSAAVGGTVTIKCRSSQSLVHRNGYNYLDWYQQKPGQPPKLLIYMASKRASGVPDRFSGSGSGTQFTLTISGVQCDDAATYYCMQALQTWTLGPGTKLEIK
binding [6]: binds

B14: 7G6_G5 (Fc fusion, not shown: a dimerising Fc or GST; small tags and cut ends)
scFv: EIVLTQSPLSLPVTLGQPASISCRSSQSLVHRNGYNYLDWFHQRPGQSPRRLIYMASKRASGVPDRFSGSGSGTDFTLKISRVDAEDVGVYYCMQALQTWTFGQGTKLTVLGGGGSGGGGSGGGGSGGGGSQVQLVQSGGGLVQPGGSLRLSCAASGFAFNDYTMHWVRQAPGKGLEWVSAISYGGTNKYYADSVKGRFTISRDNSKNTLYLQMNSLRAEDTAVYYCAADSGYRSLLHWGQGTLVTVSS
binding [1]: binds
binding [2]: binds

B15: 7G6_G6 (Fc fusion, not shown: a dimerising Fc or GST; small tags and cut ends)
scFv: EIVLTQSPLSLPVTLGQPASISCRSSQSLVHRNGYNYLDWFHQRPGQSPRRLIYMASKRASGVPDRFSGSGSGTDFTLKISRVDAEDVGVYYCMQALQTWTFGQGTKLTVLGGGGSGGGGSGGGGSGGGGSEVQLVESGGGLVQPGGSLRLSCAASGFAFNDYTMHWVRQAPGKGLEWVSAISYGGTNKYYADSVKGRFTISRDNSKNTLYLQMNSLRAEDTAVYYCAKDSGYRSLLHWGQGTLVTVSS
binding [1]: binds
binding [2]: binds

B16: 15E3 (antibody, V domains shown)
VH: EVQLVESGGALVQPGGSLRLSCAASGFKFSTFYMTWIRQAPGKGLEWVANIKQDGSEKDYLDSVRGRFNISRDNAKSVLYLQMNTLSADDTGVYYCTRNGLQDSYSGDFFDHWGQGILVTVSS
VL: QSVLTQPPSISAAPGQKVTISCSGTGSNIGHNYVSWYQQLPRTAPRLLIFDNTKRPSGIPDRFSGSKSGSSATLGITGLQTGDEAHYFCATWDADLSAVLFGGGTKLTVL
notes: Fully human monoclonal antibody, wild-type variable regions; also called MY006-15E3; 15E3-human IgG1
binding [7]: binds
binding [5]: binds
binding [4]: binds
binding [8]: binds

Results, then the binder that gave them:

binding [1]: binds
binding [2]: binds
B1: 7G6_G7 (Fc fusion, not shown: a dimerising Fc or GST; small tags and cut ends)
scFv: EIVLTQSPATLSLSPGERATLSCRSSQSLVHRNGYNYLDWYQQKPGQAPRLLIYMASKRASGVPARFSGSGSGTDFTLTISSLEPEDSALYYCMQALQTWTFGGGTKLEIKGGGGSGGGGSGGGGSGGGGSQVQLVQSGGGLVQPGGSLRLSCAASGFAFNDYTMHWVRQAPGKGLEWVSAISYGGTNKYYADSVKGRFTISRDNSKNTLYLQMNSLRAEDTAVYYCAADSGYRSLLHWGQGTLVTVSS

binding [1]: binds
binding [2]: binds
B2: 7G6_G8 (Fc fusion, not shown: a dimerising Fc or GST; small tags and cut ends)
scFv: EIVLTQSPATLSLSPGERATLSCRSSQSLVHRNGYNYLDWYQQKPGQAPRLLIYMASKRASGVPARFSGSGSGTDFTLTISSLEPEDSALYYCMQALQTWTFGGGTKLEIKGGGGSGGGGSGGGGSGGGGSEVQLVESGGGLVQPGGSLRLSCAASGFAFNDYTMHWVRQAPGKGLEWVSAISYGGTNKYYADSVKGRFTISRDNSKNTLYLQMNSLRAEDTAVYYCAKDSGYRSLLHWGQGTLVTVSS

binding [3]: binds
B3: 17H9 Fab (Fab, V domains shown)
VH: QVQLEEYGGGVVQPGRSLRLSCVASGSTLGTYGMHWVRQAPGKGLEWVAIISPDGGHQDYADPVRGRFTVSRDNSKNTLYLQMDNLRVEDTAVYYCATTLCARTDCTWVRSDSWGQGTLVTVSS
VL: ANVLTQSPGTLSLSPGERATLSCRASQRVSGDYLAWYQQKRGQAPRLLIYGASSRATGIPDRFSGSGSGTDFTLTISRLEPEDFAVYYCQHYNGPPVTFGQGTKLEIK

binding [4]: binds
B4: 17H9 human-mouse IgG chimera (antibody, V domains shown)
VH: QVQLEEYGGGVVQPGRSLRLSCVASGSTLGTYGMHWVRQAPGKGLEWVAIISPDGGHQDYADPVRGRFTVSRDNSKNTLYLQMDNLRVEDTAVYYCATTLCARTDCTWVRSDSWGQGTLVTVSS
VL: ANVLTQSPGTLSLSPGERATLSCRASQRVSGDYLAWYQQKRGQAPRLLIYGASSRATGIPDRFSGSGSGTDFTLTISRLEPEDFAVYYCQHYNGPPVTFGQGTKLEIK

binding [1]: binds
binding [2]: binds
B5: 15E3_G4 (Fc fusion, not shown: a dimerising Fc or GST; small tags and cut ends)
scFv: QSVLTQPPSVSAAPGQKVTISCSGTGSNIGHNYVSWYQQLPGTAPKLLIYDNTKRPSGIPDRFSGSKSGTSATLGITGLQTGDEADYYCATWDADLSAVLFGTGTKLTVLGGGGSGGGGSGGGGSGGGGSQVQLVQSGGGLVQPGGSLRLSCAASGFKFSTFYMTWVRQAPGKGLEWVSNIKQDGSEKDYLDSVRGRFTISRDNSKNTLYLQMNSLRAEDTAVYYCAANGLQDSYSGDFFDHWGQGTLVTVSS

binding [3]: binds
B17: 15E3 Fab (Fab, V domains shown)
VH: EVQLVESGGALVQPGGSLRLSCAASGFKFSTFYMTWIRQAPGKGLEWVANIKQDGSEKDYLDSVRGRFNISRDNAKSVLYLQMNTLSADDTGVYYCTRNGLQDSYSGDFFDHWGQGILVTVSS
VL: QSVLTQPPSISAAPGQKVTISCSGTGSNIGHNYVSWYQQLPRTAPRLLIFDNTKRPSGIPDRFSGSKSGSSATLGITGLQTGDEAHYFCATWDADLSAVLFGGGTKLTVL

binding [6]: binds
B18: 15E3_rb_IGHV1S8_J5+IGLV2S2_JL5 (antibody, V domains shown)
VH: QKQLVESGGGLDQPAGSLKLSCKDSGFTLSTFYMTWVHQAPGKGLEWIANIKQDGSEKDYLDSVRGRFTISSDNTQNMVDLEMNSLTAADMAIYFCARNGLQDSYSGDFFDHWGQGTLVTVSS
VL: QPALTQPSSVSGALGGSVTITCSGTGSNIGHNYVSWYQQLPGSVPKLLMFDNTKRPSGIPERFSGSKSGTTASLTISGLQPEDEADYYCATWDADLSAVLFGGGTKLTVL
